These are yes or no findings as the source states them, for the method shown. In cells and extracts the contact can be indirect. Binding calls can cover weak binding; strength is not graded here.
B1: Ede1 (protein, UniProt P34216 1-1381)
chain: MASITFRTPLSSQEQAFYNQKFHQLDTEDLGVVTGEAVRPLFASSGLPGQLLSQVWATVDIDNKGFLNLNEFSAALRMIAQLQNAPNQPISAALYESTPTQLASFSINQNPAPMQSGSATGNTNNTDIPALSSNDIAKFSQLFDRTAKGAQTVAGDKAKDIFLKARLPNQTLGEIWALCDRDASGVLDKSEFIMAMYLIQLCMSHHPSMNTPPAVLPTQLWDSIRLEPVVVNQPNRTTPLSANSTGVSSLTRHSTISRLSTGAFSNAASDWSLSFEKKQQFDAIFDSLDKQHAGSLSSAVLVPFFLSSRLNQETLATIWDLADIHNNAEFTKLEFAIAMFLIQKKNAGVELPDVIPNELLQSPALGLYPPNPLPQQQSAPQIAIPSRASKPSLQDMPHQVSAPAVNTQPTVPQVLPQNSNNGSLNDLLALNPSFSSPSPTKAQTVVQNNTNNSFSYDNNNGQATLQQQQPQQPPPLTHSSSGLKKFTPTSNFGQSIIKEEPEEQEQLRESSDTFSAQPPPVPKHASSPVKRTASTTLPQVPNFSVFSMPAGAATSAATGAAVGAAVGAAALGASAFSRSSNNAFKNQDLFADGEASAQLSNATTEMANLSNQVNSLSKQASITNDKKSRATQELKRVTEMKNSIQIKLNNLRSTHDQNVKQTEQLEAQVLQVNKENETLAQQLAVSEANYHAAESKLNELTTDLQESQTKNAELKEQITNLNSMTASLQSQLNEKQQQVKQERSMVDVNSKQLELNQVTVANLQKEIDGLGEKISVYLTKQKELNDYQKTVEEQHAQLQAKYQDLSNKDTDLTDREKQLEERNRQIEEQENLYHQHVSKLQEMFDDLSQRKASFEKADQELKERNIEYANNVRELSERQMNLAMGQLPEDAKDIIAKSASNTDTTTKEATSRGNVHEDTVSKFVETTVENSNLNVNRVKDDEEKTERTESDVFDRDVPTLGSQSDSENANTNNGTQSGNETANPNLTETLSDRFDGDLNEYGIPRSQSLTSSVANNAPQSVRDDVELPETLEERDTINNTANRDNTGNLSHIPGEWEATPATASTDVLSNETTEVIEDGSTTKRANSNEDGESVSSIQESPKISAQPKAKTINEEFPPIQELHIDESDSSSSDDDEFEDTREIPSATVKTLQTPYNAQPTSSLEIHTEQVIKYPAPGTSPSHNEGNSKKASTNSILPVKDEFDDEFAGLEQAAVEEDNGADSESEFENVANAGSMEQFETIDHKDLDDELQMNAFTGTLTSSSNPTIPKPQVQQQSTSDPAQVSNDEWDEIFAGFGNSKAEPTKVATPSIPQQPIPLKNDPIVDASLSKGPIVNRGVATTPKSLAVEELSGMGFTEEEAHNALEKCNWDLEAATNFLLDSA
B2: End3 (protein, UniProt P39013 1-349)
chain: MPKLEQFEIKKYWQIFSGLKPIENKVNHDQVLPILYNSKLDSSVLNKIWFLADIDDDDNLDFEEFVICMRLIFDMVNKNISSVPDELPDWLIPGSKVNLIKERKKRKQIENADLPPKKEIKVDWYMSPDDLNQYEKIYNSCAKLTDGTITFNELSTKLSTKFFNISKTDLNKVWSLINPQNLPSIDRDPTFYFIHCLRQRNDLGAEIPASLPNSLAEVCNKKQLSYDLRSSQPPTKRKEEANEVDNLRDNGQNSSSDSSGSNVLSNEDSIKQKYASLTDDQVANMREQLEGLLNYKKSEKTQGGSKLSKRINIRSITDDLDNIEQQVEVLENYLNNKRHELQALQAEIN
B3: Yap1802 (protein, UniProt P53309 1-568)
chain: MSSLYTKLVKGATKIKMAPPKQKYVDPILSGTSSARGLQEITHALDIRLSDTAWTIVYKALIVLHLMIQQGEKDVTLRHYSHNLDVFQLRKISHTTKWSSNDMRALQRYDEYLKTRCEEYGRLGMDHLRDNYSSLKLGSKNQLSMDEELDHVESLEIQINALIRNKYSVSDLENHLLLYAFQLLVQDLLGLYNALNEGVITLLESFFELSIEHAKRTLDLYKDFVDMTEYVVRYLKIGKAVGLKIPVIKHITTKLINSLEEHLREETKRQRGEPSEPQQDRKPSTAISSTSSHNNNSNDKNKSIAQKKLEQIREQKRLLEQQLQNQQLLISPTVPQDAYNPFGSQQQDLNNDTFSFEPTQPQMTAQVPQPTANPFLIPQQQQQALQLTSASTMPQPSEIQITPNLNNQQTGMYASNLQYTPNFTGSGFGGYTTTENNAIMTGTLDPTKTGSNNPFSLENIAREQQQQNFQNSPNPFTLQQAQTTPILAHSQTGNPFQAQNVVTSPMGTYMTNPVAGQLQYASTGAQQQPQMMQGQQTGYVMVPTAFVPINQQQQQQQHQQENPNLIDI
B4: Abp1 (protein, UniProt P15891 1-592)
chain: MALEPIDYTTHSREIDAEYLKIVRGSDPDTTWLIISPNAKKEYEPESTGSSFHDFLQLFDETKVQYGLARVSPPGSDVEKIIIIGWCPDSAPLKTRASFAANFAAVANNLFKGYHVQVTARDEDDLDENELLMKISNAAGARYSIQTSSKQQGKASTPPVKKSFTPSKSPAPVSKKEPVKTPSPAPAAKISSRVNDNNDDDDWNEPELKERDFDQAPLKPNQSSYKPIGKIDLQKVIAEEKAKEDPRLVQKPTAAGSKIDPSSDIANLKNESKLKRDSEFNSFLGTTKPPSMTESSLKNDDDKVIKGFRNEKSPAQLWAERKAKQNSGNAETKAEAPKPEVPEDEPEGEPDVKDLKSKFEGLAASEKEEEEMENKFAPPPKKSEPTIISPKPFSKPQEPVKAEEAEQPKTDYKKIGNPLPGMHIEADNEEEPEENDDDWDDDEDEAAQPPLPSRNVASGAPVQKEEPEQEEIAPSLPSRNSIPAPKQEEAPEQAPEEEIEEEAEEAAPQLPSRSSAAPPPPPRRATPEKKPKENPWATAEYDYDAAEDNELTFVENDKIINIEFVDDDWWLGELEKDGSKGLFPSNYVSLGN
B5: Sla2 (protein, UniProt P33338 1-968)
chain: MSRIDSDLQKALKKACSVEETAPKRKHVRACIVYTWDHQSSKAVFTTLKTLPLANDEVQLFKMLIVLHKIIQEGHPSALAEAIRDRDWIRSLGRVHSGGSSYSKLIREYVRYLVLKLDFHAHHRGFNNGTFEYEEYVSLVSVSDPDEGYETILDLMSLQDSLDEFSQIIFASIQSERRNTECKISALIPLIAESYGIYKFITSMLRAMHRQLNDAEGDAALQPLKERYELQHARLFEFYADCSSVKYLTTLVTIPKLPVDAPDVFLINDVDESKEIKFKKREPSVTPARTPARTPTPTPPVVAEPAISPRPVSQRTTSTPTGYLQTMPTGATTGMMIPTATGAANAIFPQATAQMQPDFWANQQAQFANEQNRLEQERVQQLQQQQAQQELFQQQLQKAQQDMMNMQLQQQNQHQNDLIALTNQYEKDQALLQQYDQRVQQLESEITTMDSTASKQLANKDEQLTALQDQLDVWERKYESLAKLYSQLRQEHLNLLPRFKKLQLKVNSAQESIQKKEQLEHKLKQKDLQMAELVKDRDRARLELERSINNAEADSAAATAAAETMTQDKMNPILDAILESGINTIQESVYNLDSPLSWSGPLTPPTFLLSLLESTSENATEFATSFNNLIVDGLAHGDQTEVIHCVSDFSTSMATLVTNSKAYAVTTLPQEQSDQILTLVKRCAREAQYFFEDLMSENLNQVGDEEKTDIVINANVDMQEKLQELSLAIEPLLNIQSVKSNKETNPHSELVATADKIVKSSEHLRVDVPKPLLSLALMIIDAVVALVKAAIQCQNEIATTTSIPLNQFYLKNSRWTEGLISAAKAVAGATNVLITTASKLITSEDNENTSPEQFIVASKEVAASTIQLVAASRVKTSIHSKAQDKLEHCSKDVTDACRSLGNHVMGMIEDDHSTSQQQQPLDFTSEHTLKTAEMEQQVEILKLEQSLSNARKRLGEIRRHAYYNQDDD
B6: Ysc84 (protein, UniProt P32793 1-468)
chain: MGINNPIPRSLKSETKKAAKVLRSFVKPNQVFGADQVIPPYVLKRAKGLAIITVLKAGFLFSGRAGSGVIVARLKDGTWSAPSAIAMAGAGAGGMVGVELTDFVFILNSEEAVRSFSEFGTITLGGNVSVSAGPLGRSAEAAASASTGGVSAVFAYSKSKGLFAGVSVEGSAILERREANRKFYGDNCTSKMILSGRVKVPPAADPLLRILESRAFNFTRHDHDDNASGDDFYDDGQYSDNTSHYYDDIPDSFDSTDESSTRPNTRSSRRRGMSLGSRSRYDDDYDDDGYGRGRGYGDFDSEDEDYDYGRSPNRNSSRNRGPQIDRGTKPRANTRWEDDLYDRDTEYSRPNHSGRDYDNTRGNRRGYGRERGYSLGHGPTHPSNMSNVDDLSHKMSKTGLGNESTATNSATPTAVALYNFAGEQPGDLAFKKGDVITILKKSDSQNDWWTGRTNGKEGIFPANYVRVS
B7: Sla1 (protein, UniProt P32790 1-1244)
chain: MTVFLGIYRAVYAYEPQTPEELAIQEDDLLYLLQKSDIDDWWTVKKRVIGSDSEEPVGLVPSTYIEEAPVLKKVRAIYDYEQVQNADEELTFHENDVFDVFDDKDADWLLVKSTVSNEFGFIPGNYVEPENGSTSKQEQAPAAAEAPAATPAAAPASAAVLPTNFLPPPQHNDRARMMQSKEDQAPDEDEEGPPPAMPARPTATTETTDATAAAVRSRTRLSYSDNDNDDEEDDYYYNSNSNNVGNHEYNTEYHSWNVTEIEGRKKKKAKLSIGNNKINFIPQKGTPHEWSIDKLVSYDNEKKHMFLEFVDPYRSLELHTGNTTTCEEIMNIIGEYKGASRDPGLREVEMASKSKKRGIVQYDFMAESQDELTIKSGDKVYILDDKKSKDWWMCQLVDSGKSGLVPAQFIEPVRDKKHTESTASGIIKSIKKNFTKSPSRSRSRSRSKSNANASWKDDELQNDVVGSAAGKRSRKSSLSSHKKNSSATKDFPNPKKSRLWVDRSGTFKVDAEFIGCAKGKIHLHKANGVKIAVAADKLSNEDLAYVEKITGFSLEKFKANDGSSSRGTDSRDSERERRRRLKEQEEKERDRRLKERELYELKKARELLDEERSRLQEKELPPIKPPRPTSTTSVPNTTSVPPAESSNNNNSSNKYDWFEFFLNCGVDVSNCQRYTINFDREQLTEDMMPDINNSMLRTLGLREGDIVRVMKHLDKKFGRENIASIPTNATGNMFSQPDGSLNVATSPETSLPQQLLPQTTSPAQTAPSTSAETDDAWTVKPASKSESNLLSKKSEFTGSMQDLLDLQPLEPKKAAASTPEPNLKDLEPVKTGGTTVPAAPVSSAPVSSAPAPLDPFKTGGNNILPLSTGFVMMPMITGGDMLPMQRTGGFVVPQTTFGMQSQVTGGILPVQKTGNGLIPISNTGGAMMPQTTFGAAATVLPLQKTGGGLIPIATTGGAQFPQTSFNVQGQQQLPTGSILPVQKTANGLISANTGVSMPTVQRTGGTMIPQTSFGVSQQLTGGAMMTQPQNTGSAMMPQTSFNAVPQITGGAMMPQTSFNALPQVTGGAMMPLQRTGGALNTFNTGGAMIPQTSFSSQAQNTGGFRPQSQFGLTLQKTGGIAPLNQNQFTGGAMNTLSTGGVLQQQQPQTMNTFNTGGVMQELQMMTTFNTGGAMQQPQMMNTFNTDGIMQQPQMMNTFNTGGAMQQPQQQALQNQPTGFGFGNGPQQSRQANIFNATASNPFGF
B8: Lsb3 (protein, UniProt P43603 1-459)
chain: MGINNPIPRSLKSETKKAAKILASFVKPNQVFGADQVIPPDVLKRAKGLAIITILKAGFLFSGRAGSGVIVARLKDGTWSAPSAIAMAGAGAGGMVGIELTDFVFILNTQDAVKSFSEFGTITLGGNVSVSAGPLGRSAEAAASASAGGVAAVFAYSKSKGLFAGVSVEGSAIIERREANRKFYGDNCTAKMILSGRIRPPPAVDPLFRVLESRAFNYRPSNGGRGSFDDDEDDYYDDDDYYNDIPSSFSSTDASSTRPNTRSTRRRAQSGSRYTFDDDDDDDDYGTGYSRNSRLAPTNSGGSGGKLDDPSGASSYYASHRRSGTAQSRARSSRNRWADDEYDDYDDDYESGYRRGNGRDRTKDREVDDLSNRFSKSRISSASTPQTSQGRFTAPTSPSTSSPKAVALYSFAGEESGDLPFRKGDVITILKKSDSQNDWWTGRVNGREGIFPANYVELV

The binders below were run against Sla1 ΔPLD (S. cerevisiae) (assay: split reporter).

binding	Binder
no binding	B1
no binding	B2
no binding	B3
binds	B4
binds	B5
no binding	B6
no binding	B7
no binding	B8
